# Results: PubChem BioAssay AID602313 (National Center for Advancing Translational Sciences (NCATS), 2012)
# About 760 (0.19%) of roughly 390,000 compounds were called active. This list was built around the results that the source calls inconclusive (neither active nor inactive); the mix of calls is not that of the screen. Calls follow the shape of the dose curve; as a rule, active = well fitted inhibition curve with a large enough effect; inconclusive = small, poorly fitted or top-dose-only effect; inactive = flat fitted curve, though single readings scatter. Potencies of inconclusive entries are doubtful fits and often do not repeat.
# Assay: qHTS for Inhibitors of Vif-A3F Interactions: qHTS; also: nearly all actives have a fitted effect of over 65% in size; as to activity, negative = active: % of control where 0% means no effect
# Conditions: HeLa A3F-eYFP + Vif (tagged APOBEC3F with the HIV-1 protein that degrades it), YFP fluorescence increase; series mostly up to 46.1 µM; activity, negative = active: at the top concentration
# Procedure, shortened: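 HeLa cells stably expressing A3F-eYFP plus Vif, plated and incubated overnight at 37 deg C, then exposed to compounds overnight at 37 deg C. Blocked degradation read as raised yellow fluorescence (Ex 488/Em 500-530).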
# Potency is read from the fitted curve at half-maximal effect.
Compound,Potency,"activity, negative = active"
C/C(=N\NC(=O)CCc1c[nH]c2ccccc12)c1cccc([N+](=O)[O-])c1,"inconclusive: 2.82 µM [inhibitor, single point]",
CN(Cc1ccccc1)C(=O)CN1C(=O)c2ccc([N+](=O)[O-])cc2C1=O,"inconclusive: 6.31 µM [inhibitor, single point]",
O=C(CCN1CCC2CCC(C2)C1)c1ccc(F)cc1 (centres undefined),,inactive: -7.09%
Cc1nc([N+](=O)[O-])c(SCC(O)CCl)n1Cc1ccc(Cl)cc1 (centres undefined),"inconclusive: 35.5 µM [inhibitor, single point]",
Cc1ccc(-n2nc3c(N4CCC(C(=O)NC(C)c5ccccc5)CC4)nnc(C)c3c2C)cc1 (centres undefined),"inconclusive: 22.4 µM [inhibitor, single point]",
O=c1[nH]nc(CNc2ccc(Cl)cc2Cl)c2ccccc12,"inconclusive: 35.5 µM [inhibitor, single point]",
COC(=O)c1ccc(CO/N=C/c2ccc(OC)cc2OC)cc1,"inconclusive: 17.8 µM [inhibitor, partial curve, poor fit]",
Cc1ccc(Nc2nc3ccc(Cl)cc3n3cnnc23)cc1F,"inconclusive: 35.5 µM [inhibitor, single point]",
Cc1ccc(C)c(-c2nnc(NC(=O)c3ccc4c(c3)OCCO4)o2)c1,"inconclusive: 10 µM [inhibitor, partial curve, poor fit]",
O=C(c1ccc(Br)c([N+](=O)[O-])c1)N1CCN(Cc2ccccc2)CC1,,inactive: 6.12%
CNC(=O)c1nn(C)c(=O)[nH]c1=O,"inconclusive: 3.55 µM [inhibitor, partial curve, poor fit]",
Cn1c(=S)c2[nH]c(SCCN3CCCC3)nc2n(C)c1=O,"inconclusive: 3.98 µM [inhibitor, full curve, poor fit]",
O=C(Nc1ccc(Cl)cc1)/C(=C/c1cccc(O)c1)c1nc2ccccc2s1,"inconclusive: 10 µM [inhibitor, partial curve]",
CC(=O)Oc1ccc(N2C(=O)c3cccc4c([N+](=O)[O-])ccc(c34)C2=O)cc1,active: 22.4 µM,
O=C(Cn1c2ccccc2c(=O)c2ccccc21)N/N=C/c1ccc(N2CCCC2)c([N+](=O)[O-])c1,"inconclusive: 7.08 µM [inhibitor, partial curve, poor fit]",
Cc1ccc(-c2cc(C#N)c(=O)n(Cc3c(Cl)cccc3Cl)c2)cc1,"inconclusive: 28.2 µM [inhibitor, single point]",
O=C(NCC1CCCO1)c1ccccc1 (centres undefined),"inconclusive: 6.31 µM [inhibitor, single point]",
S=C(Nc1ccccc1)c1nc2ccccc2s1,"inconclusive: 5.62 µM [inhibitor, single point]",
Cc1cccn2c(=O)c(C=O)c(N3CCC4(CC3)OCCO4)nc12,"inconclusive: 35.5 µM [inhibitor, single point]",
CN(C(=S)NC(=O)c1ccccc1)c1c(N)n(Cc2ccccc2)c(=O)[nH]c1=O,"inconclusive: 1.26 µM [inhibitor, partial curve, poor fit]",
CN1CCN(CCCNC(=O)Cn2c(-c3cccs3)cc3cc(Cl)ccc32)CC1,"inconclusive: 15.8 µM [inhibitor, single point]",
COc1cc(/C=N/Nc2ncnc3sc4c(c23)CCC4)ccc1O,"inconclusive: 35.5 µM [inhibitor, single point]",

# Some values from the list.
# Entry for S=C(Nc1ccccc1)c1nc2ccccc2s1 under Potency: inconclusive: 5.62 µM [inhibitor, single point]
# Entry for Cc1ccc(C)c(-c2nnc(NC(=O)c3ccc4c(c3)OCCO4)o2)c1 under Potency: inconclusive: 10 µM [inhibitor, partial curve, poor fit]

# (next part)

Compound,Potency,"activity, negative = active"
Cc1ccc2c(c1)c(=O)c(C(=O)c1ccc3c(c1)OCO3)cn2Cc1cccc(F)c1,,inactive: -3.01%
Cc1cc2nc3s/c(=C/c4ccc(-c5ccccc5C(=O)O)o4)c(=O)n3c2cc1C,"inconclusive: 2.51 µM [inhibitor, full curve, poor fit]",
O=C(NN1C(=O)/C(=C/c2ccc(O)cc2)SC1=S)c1cccc(O)c1,"inconclusive: 17.8 µM [inhibitor, single point]",
CCCc1nn2c(=O)cc(COC(=O)c3ccc(NC(=O)CCc4ccccc4)cc3)nc2s1,"inconclusive: 5.62 µM [inhibitor, single point]",
COc1cc(/C=C2/SC(=S)N(Cc3ccccc3)C2=O)cc(OC)c1O,"inconclusive: 7.08 µM [inhibitor, partial curve, poor fit]",
COc1ccc(OC)c(NC(=O)NCCc2cccc(Cl)c2)c1,"inconclusive: 2.82 µM [inhibitor, full curve, poor fit]",
Cc1ccc2nc(N3CCN(c4cccc(Cl)c4)CC3)c3nnnn3c2c1,"inconclusive: 2.24 µM [inhibitor, partial curve, poor fit]",
Cc1ccc(C(=O)CSc2ncc3c(n2)-c2ccccc2N(Cc2ccc(Cl)cc2)S3(=O)=O)cc1,,inactive: -1%
CCOc1ccc(NC(=O)c2sc3nc4c(cc3c2N)CN(Cc2ccccc2)CC4)cc1,"inconclusive: 3.55 µM [inhibitor, partial curve, poor fit]",
CCN(Cc1ccccc1)c1ccc(/C=C(\C#N)c2ccccn2)cc1,active: 22.4 µM,
Cc1ccc2[nH]c(C)c(CCNC(=O)c3c(N)no[n+]3[O-])c2c1,"inconclusive: 5.62 µM [inhibitor, single point]",
C=CCNc1nc2c(c(=O)[nH]c(=O)n2C)n1CC(O)COc1ccc2ccccc2c1 (centres undefined),"inconclusive: 12.6 µM [inhibitor, single point]",
CCCN(CC(=O)Nc1ccc(Cl)cc1Cl)C(=O)/C=C/c1ccco1,"inconclusive: 28.2 µM [inhibitor, single point]",
O=C(COc1ccc([N+](=O)[O-])cc1)Nc1nnc(-c2cccnc2)s1,"inconclusive: 11.2 µM [inhibitor, single point]",
CCC(=O)OC1CSc2nc3ccccc3n2C1 (centres undefined),"inconclusive: 35.5 µM [inhibitor, single point]",
S=c1[nH]nc(-c2ccncc2)n1/N=C/C(Cl)=C\c1ccccc1,,inactive: -7.64%
COC(=O)C(Sc1ccc(Cl)cc1)C1SC(=S)N(Cc2ccccc2)C1=O (centres undefined),"inconclusive: 8.91 µM [inhibitor, partial curve, poor fit]",
O=C(CCS(=O)(=O)c1nc(-c2cccs2)cc(C(F)(F)F)n1)Nc1ccc(F)c(Cl)c1,,inactive: 0.418%
CCOc1ccc(CCNC(=O)c2ccc3c(c2)nc2n3CCOC2)cc1OCC,,inactive: -1.82%
N/C(=N\OCC(=O)Nc1ccccc1)c1nonc1N,"inconclusive: 2.82 µM [inhibitor, full curve, poor fit]",
COc1ccc2ccccc2c1CNC(=O)CC1C(=O)NCCN1CC(C)C (centres undefined),"inconclusive: 15.8 µM [inhibitor, single point]",
CCC(C)Cn1c(O)cc2nn(-c3nc4ccccc4s3)c(=O)c-2c1C (centres undefined),"inconclusive: 35.5 µM [inhibitor, single point]",

Compound,Potency,"activity, negative = active"
O=S(=O)(/N=C(/NC(=S)Nc1ccccc1)c1ccccc1)c1ccc(Cl)cc1,"inconclusive: 35.5 µM [inhibitor, single point]",
COc1ccc(-c2c(-c3ccsc3)oc3ccc(N4CCOCC4)cc23)cn1,,inactive: -0.579%
CCOc1ccccc1-c1nc(SCC(=O)c2ccc(OC)c(Br)c2)n[nH]1,"inconclusive: 17.8 µM [inhibitor, partial curve, poor fit]",
CC(C)c1ccc(N2C(=NC(=O)C3CCCO3)SC3CS(=O)(=O)CC32)cc1 (centres undefined),"inconclusive: 35.5 µM [inhibitor, single point]",
CCCCn1c(NC(=O)c2ccccc2)c(C#N)c2nc3ccccc3nc21,"inconclusive: 25.1 µM [inhibitor, single point]",
COc1ccc(NC(=O)CN(C)C(=O)CCc2ccccc2)cc1,"inconclusive: 10 µM [inhibitor, partial curve, poor fit]",
CCN(CC)c1ccc(/C=C2/SC(=O)N(C(C)C)C2=O)o1,"inconclusive: 3.16 µM [inhibitor, partial curve, poor fit]",
CCOC(=O)c1cnc2ccccc2c1Nc1cccc(OC)c1,,inactive: -7.53%
CC(C)(C)c1ccc(CSc2nnc(-c3ccccn3)n2Cc2ccco2)cc1,"inconclusive: 20 µM [inhibitor, single point]",
CCN1CCN(c2cc(-c3ccccc3)nc3cc(-c4cccc(F)c4)nn23)CC1,"inconclusive: 35.5 µM [inhibitor, single point]",
Cc1cc(C)c2nc(NC(=O)C3CSC4(C)CCC(=O)N34)sc2c1 (centres undefined),"inconclusive: 15.8 µM [inhibitor, single point]",
N#C/C(=C/c1ccc(-c2ccc([N+](=O)[O-])cc2)o1)C(=O)Nc1nc(-c2cccs2)cs1,"inconclusive: 1.58 µM [inhibitor, full curve, poor fit]",
CC(=O)Nc1ccc(S(=O)(=O)Nc2cc(C)cn(Cc3ccc(C)cc3)c2=O)cc1,"inconclusive: 35.5 µM [inhibitor, single point]",
O=C(CNC(=O)c1ccccc1)Oc1ccc([N+](=O)[O-])cc1,"inconclusive: 35.5 µM [inhibitor, single point]",
Cc1nc2scc(-c3ccccc3)c2c(=O)n1N=C1C=CC(=O)C=C1,,inactive: 0.526%
NNC(=S)Nc1ccccc1Cl,"inconclusive: 5.62 µM [inhibitor, single point]",
Cc1ccc(-n2c(C)cc(C(=O)COC(=O)c3c(C)noc3C)c2C)cc1,,inactive: -7.64%
Cc1ccc(CN2CC(C(=O)OCc3ccccc3Cl)CC2=O)cc1 (centres undefined),,inactive: 2.37%
Clc1ccc(-c2nnc3sc(Cc4cccs4)nn23)c(Cl)c1,,inactive: -1.52%
Cn1cc(/C=C2\SC(=S)N(NC(=O)c3ccccc3)C2=O)c2ccccc21,"inconclusive: 3.55 µM [inhibitor, partial curve, poor fit]",
